In patent EP4703385A1 (Fortvita Biologics Inc., dated 2026) one finds binding data, which are given here for two molecules.

By UniProt entry, the sequences of proteins in these tests, tags left out. Residues count along the entry.
UniProt P29965, residues 108-261: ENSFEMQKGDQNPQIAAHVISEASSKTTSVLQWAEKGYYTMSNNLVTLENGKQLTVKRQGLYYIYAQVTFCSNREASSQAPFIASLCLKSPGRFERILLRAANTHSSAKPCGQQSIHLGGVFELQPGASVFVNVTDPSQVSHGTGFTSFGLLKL

These are yes or no findings as the source states them, for the method shown. Some binding calls cover weakened binding; strength is not graded here.

In assay [1] the target is Human CD40 Ligand/TNFSF5 Protein, His, Flag Tag, active trimer (MALS verified) (human) (UniProt P29965). The assay is described as follows: competition ELISA: CD40L coated, antibody titrated from 20 ug/mL against biotinylated CD40-Fc (2 ug/mL working solution). On the technique in general: An ELISA detects its analyte on a solid surface through an enzyme-linked reagent.
For assay [2] the target is unchanged. Nature of the assay: screening by ELISA and luciferase assays after humanization.

B1: Hz47E2 (antibody, human IgG1, kappa, L234A L235A, V domains shown)
VH: EVQLVESGGGLVKPGGSLRLSCAASGFTFSDYAMSWVRQAPGKGLEWVSEISTVHTYTYYSDAVAGRFTISRDNAKNSLYLQMNSLRAEDTAVYYCARDRVLDYWGQGTLVTVSS
VL: DIVMTQSPDSLAVSLGERATINCRASESVEYYDTSLMQWYQQKPGQPPKLLIYAASNLESGVPDRFSGSGSGTDFTLTISSLQAEDVAVYYCQQTKKLPWTFGQGTKVEIKR
notes: Expressed in ExpiCHO cells; also called Antibody Hz47E2; humanized anti-CD40L antibody Hz47E2
Regarding B1, the binding result in assay [1] and in assay [2] was “binds” throughout.

B2: Hz33B9C5 (antibody, human IgG1, kappa, L234A L235A, V domains shown)
VH: QVQLVESGGGLVKPGGSLRLSCAASGFTFSDYYMYWIRQAPGKGLEWVSTISGGGTYTYSPDSVKGRFTISRDNAKNSLYLQMNSLRAEDTAVYYCARGEPGLAYWGQGTLVTVSS
VL: DIVMTQSPDSLAVSLGERATINCKASQSVDYYGDSYMHWYQQKPGQPPKLLIYASSNLESGVPDRFSGSGSGTDFTLTISSLQAEDVAVYYCQQSHEDPWTFGGGTKVEIKR
notes: Expressed in ExpiCHO cells; also called Antibody Hz33B9C5; humanized anti-CD40L antibody Hz33B9C5
With B2, the binding result in assay [1] and in assay [2] was “binds” throughout.
